PubChem BioAssay AID686937 – Drosophila RNAi Screening Center – 2013
The screen tested about 23,000 reagents; shown is a random part of those with a known target gene and a result. 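Reduced-secretion tags in replicate 1 do not always agree with the z-scores; no criterion for assigning the tags was given.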 Reagents against one gene are numbered here. A plus sign joins genes that one reagent is predicted to hit. Not all columns of the deposit are shown. Reagent sequences are not shown. Not stated in the record: the amount of reagent.

Assay: 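Genes whose loss weakens secretory pathway function in fly cells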 (primary screen)
Cell system: Drosophila S2 cells expressing secreted horseradish peroxidase
Knock-down reagent: long dsRNA against Drosophila genes
Time to read-out: about 5.5 days (5 days dsRNA, then 12 h reporter induction)
Treatment: reporter expression induced after 5 days of dsRNA, read 12 h later; inducer not stated
Measurement: 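Chemiluminescent measurement of peroxidase in the medium 12 h after reporter induction, following 5 days of dsRNA, given as a z-score per plate; higher means more secretion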
Scale: z-score: higher = more reporter secreted into medium

The first 2 entries, ahead of the listing:
z-score, replicate 1 | z-score, replicate 2 | z-score, replicate 3 | Gene | dsRNA no.
0.29 | 0.24 | – | CG30095 | 1
0.5 | 0.37 | – | CG3156 | 1

The listing, repeating the preview:
z-score, replicate 1 | z-score, replicate 2 | z-score, replicate 3 | Gene | dsRNA no.
0.29 | 0.24 | – | CG30095 | 1
0.5 | 0.37 | – | CG3156 | 1
0.08 | 0.27 | – | Max | 1
0.26 | 0.32 | – | AlaRS-m (Alanyl-tRNA synthetase, mitochondrial) | 1
0.01 | 0.47 | – | Shab (Shaker cognate b) | 1
0.33 | 0.38 | – | Shab (Shaker cognate b) | 2
-0.29 | -0.9 | – | Shab (Shaker cognate b) | 3
-0.33 | 0 | – | Fbp1 (Fat body protein 1) | 1
0.15 | 0.26 | – | CG7448 (retired record) | 1
0.29 | -0.05 | – | CG7448 (retired record) | 2
0.31 | -0.42 | – | CG17917 | 1
0.14 | 0.23 | – | Vps52 (Vacuolar protein sorting 52) | 1
0.16 | 0.13 | – | Oatp58Db (Organic anion transporting polypeptide 58Db) | 1
0.79 | 0.32 | – | Su(H) (Suppressor of Hairless) | 1
0.11 | 0.01 | – | maca | 1
-0.23 | -0.46 | – | Rae1 | 1
0.49 | 0.25 | – | CTCF | 1
0.03 | 0.25 | – | CG9257 | 1
0.03 | 0.35 | – | CG13228 | 1
-0.32 | 0.13 | – | CG4497 | 1
0.01 | 0.18 | – | Rab30 | 1
-3.31 | -2.25 | – | RpS8 (Ribosomal protein S8) | 1
-0.02 | 0.04 | – | Polr1B (RNA polymerase I subunit B) | 1
-0.92 | -0.71 | – | CG14915 | 1
-0.29 | 0.61 | – | Syp (Syncrip) | 1
0.28 | 0.21 | – | Syp (Syncrip) | 2
0.06 | 0.12 | – | CG4364 | 1
0.21 | 0.28 | – | lectin-24Db | 1
0.05 | 0.2 | – | cona (corona) | 1
0.4 | 0.39 | – | CG3862 | 1
0.46 | 0.5 | – | CG6059 | 1
0.2 | 0.43 | – | CG10737 | 1
0.14 | 0.31 | – | wit (wishful thinking) | 1
0.58 | 0.41 | – | Arp5 (Actin-related protein 5) | 1
0.45 | 0.35 | -1.65 | RpS11 (Ribosomal protein S11) | 1
-2.75 | -1.14 | – | RpS11 (Ribosomal protein S11) | 2
0.59 | 0.38 | – | CG13160 | 1
0.5 | 0.56 | – | CrzR (Corazonin receptor) | 1
-2.72 | 0.5 | – | CrzR (Corazonin receptor) | 2
0.71 | 0.28 | – | x16 (x16 splicing factor) | 1
0.04 | 0 | – | x16 (x16 splicing factor) | 2
0.31 | 0.48 | – | CG9522 | 1
0.33 | 0.48 | – | CG10674 | 1
0.33 | 0.2 | – | CG34054 | 1
-2.23 | -2.43 | – | dlg1 (discs large 1) | 1
0.78 | 0.6 | – | dlg1 (discs large 1) | 2
-0.23 | -0.83 | – | dlg1 (discs large 1) | 3
0.3 | 0.45 | – | dlg1 (discs large 1) | 4
0.44 | 0.37 | – | sl (small wing) | 1
-0.74 | -0.13 | – | sl (small wing) | 2
0.59 | 0.16 | – | Smg5 (Smg5 nonsense mediated mRNA decay factor) | 1
0.25 | 0.3 | – | Hdc (Histidine decarboxylase) | 1
-1.72 | -2.96 | – | rdx (roadkill) | 1
0.35 | 0.14 | – | rdx (roadkill) | 2
-1.74 | -0.65 | – | eIF1 (eukaryotic translation initiation factor 1) | 1
0.34 | 0.27 | – | CG3149 | 1
-0.66 | -0.26 | – | lncRNA:CR32160 (long non-coding RNA:CR32160) | 1
0.29 | 0.4 | – | nmo (nemo) | 1
0.21 | 0.39 | – | nmo (nemo) | 2
0.15 | 0.24 | – | Dnah3 (dynein, axonemal, heavy chain 3) | 1
0.24 | 0.31 | – | Dnah3 (dynein, axonemal, heavy chain 3) | 2
0.14 | -0.18 | – | CG5346 | 1
0.31 | 0.42 | – | CG8032 | 1
0.23 | 0.39 | – | CG4829 | 1
0.26 | 0.49 | – | CG9114 | 1
0.29 | -0.95 | – | Osi19 (Osiris 19) | 1
-1.02 | -0.3 | – | CG32554 | 1
0.41 | 0.27 | – | achi (achintya) | 1
0.61 | -0.06 | – | CG31663 | 1
-0.09 | 0.27 | – | CG31663 | 2
0.7 | 0.6 | – | CG31663 | 3
0.19 | 0.19 | – | CG31663 | 4
0.17 | 0.25 | – | CG6276 | 1
0.42 | -0.63 | – | Cpr65Ec (Cuticular protein 65Ec) | 1
0.54 | 0.39 | – | Teh4 (tipE homolog 4) | 1
-0.02 | 0.29 | – | Ank2 (Ankyrin 2) | 1
0.37 | 0.34 | – | Ank2 (Ankyrin 2) | 2
0.2 | 0.3 | – | Ank2 (Ankyrin 2) | 3
-0.05 | 0.38 | – | Ank2 (Ankyrin 2) | 4
-0.03 | -0.2 | – | Ank2 (Ankyrin 2) | 5
-1.59 | -1.21 | – | mdu (meduse) | 1
0.42 | 0.19 | – | Spn77Bb + Spn77Bc | 1
0.46 | 0.29 | – | Spn77Bb + Spn77Bc | 2
